Some of the results follow.

The assay concerns T1, CTL2-GFP (C. trachomatis L2/434/Bu, GFP-expressing).
T1 construct: L2/434/Bu, GFP-expressing
Also noted: species or system HeLa; Intracellular C. trachomatis growth in HeLa cells, bulk GFP fluorescence relative to DMSO. As to conditions: bulk GFP, single well; 28.5 h, 10 µM; inhibitor.
Regarding `O=S(=O)(NCc1ccc2c(c1)OCO2)c1ccc2c(c1)oc1ccccc12` [CBK268308], the “% of control remaining” value is reported as 121.924%.

On to `COCCNc1nc2c(c(N3CCCC(CO)C3)n1)CCNCC2` (stereo not shown) [CBK307242], for which the “% of control remaining” value is listed as 125.056%. Then `Cn1nc2c(c1O)CCCC2` [CBK089897], with 95.7011%; and `CCOc1cc(OCC)nc(Oc2ccc(C(=O)OC)cc2)n1` [CBK107733], with 144.357%; and `CCc1cc2c(=O)c(-c3cnn(-c4ccccc4)c3)c(C(F)(F)F)oc2c(CN2CCCCC2)c1O` [CBK264458], with 128.829%. Turning to `COc1cccc(N2CCN(C(C(=O)O)c3cn(C)c4cc(C(=O)O)ccc34)CC2)c1` (stereo not shown) [CBK286701], the “% of control remaining” value was found to be 108.378%. In the case of `Cc1cc(=O)n2c(C(=O)Nc3ccc(C(=O)O)cc3)c(C(=O)Nc3cccc(C)c3C)sc2n1` [CBK297547], the “% of control remaining” value stood at 121.356%. Take `COCCNC(=O)c1ccc(-c2ccc3c(c2)OCO3)nc1N(C)C` [CBK106050]: the “% of control remaining” value worked out at 106.17%. Take `CCCCc1ccc(-c2cnc(N)c3ncccc23)cc1` [CBK067588]: the “% of control remaining” value came to 122.376%. Take `CN(C)c1ccc(CN(CCO)CCO)cc1` [CBK261921]: the “% of control remaining” value worked out at 100%. As to `CC(C)(C)C(=O)Nc1ccc(-c2ccc(NC(=O)C(C)(C)C)c(C(=O)O)c2)cc1C(=O)O` [CBK261392], the “% of control remaining” value was 110.27%. With `CC(C)N1C[C@@H](C(=O)NC(C)(C)C)[C@@]2(Cc3ccccc3C(=O)N2)C1` [CBK285295], the “% of control remaining” value stood at 102.609%. As to `CCCCOC(=O)c1c(N)n(CCOC)c2nc3ccccc3nc12` [CBK264961], the “% of control remaining” value is on record as 125.574%. For the compound `NC1CCN(C(=O)Cn2ccc3ccnc(-c4cccs4)c32)CC1` [CBK284750], the “% of control remaining” value is given as 131.081%. As to `Cc1ccc(NC(=O)CCc2cccnc2)c(C)n1` [CBK200386], the “% of control remaining” value was 96.0105%. In the case of `O=C(/C=C/c1cccc([N+](=O)[O-])c1)NC(=S)Nc1ccc(-c2nc3ccccc3[nH]2)cc1` [CBK264376], the “% of control remaining” value came out at 83.7792%.

In the case of `CCN1CCN(Cc2c[nH]c3ccccc23)CC1` [CBK261540], the “% of control remaining” value turned out to be 113.955%. Next, `CCc1nc2ccc(C(=O)N(C)CCN(C)C)cn2c1N(CC)C(=O)NCCc1ccccc1` [CBK147036]: 113.628%; `NC(=O)C1CCN(C(=O)c2cc3c(=O)n4ccccc4nc3s2)CC1` [CBK296938]: 157.676%. Turning to `O=C(Nc1ncn(CC(=O)N2CCCCCC2)n1)c1cccs1` [CBK304953], the “% of control remaining” value came to 124.836%.

`O=C1NC=CCC12CCCN(S(=O)(=O)c1ccc(F)cc1)C2` (stereo not shown) [CBK284797]: the “% of control remaining” value turned out to be 131.621%. On to `O=C(Nc1cccnc1)C1CCN(S(=O)(=O)c2ccc(Oc3ccccc3)cc2)CC1` [CBK269621], for which the “% of control remaining” value was 120.341%. `COC(=O)c1ccc(-n2cc(-c3cccc(C(F)(F)F)c3)nn2)cc1` [CBK112936]: the “% of control remaining” value was determined as 116.057%. For `Cc1cc(S(=O)(=O)Nc2cccc(Br)c2)c(C)cc1Cl` [CBK043652], the “% of control remaining” value was determined as 117.234%. Then `CO[C@@H](C(=O)Nc1cnc(-c2ccc(F)cc2)c(-c2ccsc2)n1)c1ccccc1` [CBK036803], with 103.6%.

For the compound `N#CCCCN1CCC2(CC1)CN(C(=O)CO)c1ccccc12` [CBK137007], the “% of control remaining” value turned out to be 55.9462%. With `Cc1cc(C)n(C)c(=O)c1C(=O)NC(C)Cc1ccccn1` (stereo not shown) [CBK283063], the “% of control remaining” value was 125.962%. `Cc1nn(C(C)CC(=O)NC2CCCOC2)c(C)c1C` (stereo not shown) [CBK283133]: the “% of control remaining” value is on record as 97.0144%. Consider `Cc1cc(C)n2nc(C(=O)NCCCn3ccnc3C(C)C)nc2n1` [CBK307635], for which the “% of control remaining” value is on record as 145.691%.

`O=C(CC1S/C(=N/N=C/c2ccccc2C(=O)O)NC1=O)Nc1ccccc1` (stereo not shown) [CBK264515]: the “% of control remaining” value was 130.365%.

For the compound `Cc1nc2cccnc2n1CCNC(=O)c1cccc(Cl)c1` [CBK283593], the “% of control remaining” value was 138.271%. For `O=C(O)CSc1nnc(-c2ccc3c(c2)OCO3)n1-c1ccccc1` [CBK131690], the “% of control remaining” value is 89.4344%. For `COc1ccccc1-c1ccc(CC2(C(=O)NCc3cccc(F)c3)CCOCC2)cc1` [CBK286521], the “% of control remaining” value was 83.1498%. As for `Cc1cc(NS(=O)(=O)c2ccc(NC(=O)/C=C/c3ccc(C)o3)cc2)nc(C)n1` [CBK265474], the “% of control remaining” value worked out at 111.251%. Take `CC(=O)N1CCN(c2ccccc2NC(=O)Cc2ccccc2C(=O)O)CC1` [CBK286802]: the “% of control remaining” value came to 135.849%. Next, `C/C(=N\NC(=N)SC1CC(=O)N(c2ccc(C(=O)O)cc2)C1=O)c1cccs1` (stereo not shown) [CBK262471]: 90.1043%; `O=C1OCCN1S(=O)(=O)c1ccc(CN2CCCN(Cc3ccc(S(=O)(=O)N4CCOC4=O)cc3)CC2)cc1` [CBK024728]: 149.579%; `NC1CCC(NC(=O)c2cnc(-c3ccc(Cl)cc3)c(-c3ccco3)c2)CC1` (stereo not shown) [CBK037563]: 191.562%. Next, `Cc1nn(C)cc1-c1cncn1CCn1nc(C)c(C)c1C` [CBK281785]: 123.191%; `COc1cccc(C(=O)Nc2nc(-c3ccc(S(=O)(=O)N4CCCC4)cc3)cs2)c1` [CBK096257]: 115.466%; `N/N=C(\CCC(=O)O)c1ccccc1` [CBK261306]: 117.071%. Take `O=C(O)c1ccc(S(=O)(=O)c2ccc3c(c2)C(=O)N(c2ccc(Sc4ccc([N+](=O)[O-])cc4)cc2)C3=O)cc1` [CBK262869]: the “% of control remaining” value came out at 86.3664%. In the case of `Cc1ccccc1-c1nc(S(=O)(=O)c2ccc(Cl)cc2)c(NCC2CCCO2)o1` (stereo not shown) [CBK267668], the “% of control remaining” value was found to be 77.517%.

As for `O=C(Nc1cccnc1)c1cc2cc(F)ccc2[nH]1` [CBK107272], the “% of control remaining” value amounted to 167.104%. Regarding `CCCS(=O)(=O)n1ccn(-c2ccc(Cl)c(Cl)c2)c1=O` [CBK106667], the “% of control remaining” value was found to be 105.833%. With `COc1ccccc1CCNC(=O)N1CCC(Oc2cccnc2)CC1` [CBK307615], the “% of control remaining” value is reported as 110.26%. Then `COc1ccc(CCNc2ncnc3c2cnn3-c2ccc(Cl)cc2)cc1OC` [CBK265804], with 99.8763%; and `CCCC(=O)Nc1ccc(OCCOC(C)(C)C)c(C(C)=O)c1` [CBK305691], with 122.406%; and `CCOC(=O)c1cccc(-c2cc3ccccc3o2)n1` [CBK149243], with 136.581%.

(Values after publication PMC12040169 (PLOS Biology, 2025).)
